PubChem BioAssay AID1508588 | Peter MacCallum Cancer Centre, 2020

Assay: 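Knock-downs boosting vemurafenib effects on melanoma cell growth or lactate release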 (primary screen)
System: human WM266.4 melanoma cells (BRAF V600 mutant)
Knock-down reagent: siRNA pool against human genes, 40 nM
Timing: 96 h from transfection to read-out
Challenge: vemurafenib 300 nM (about IC25), added 48 h after transfection, for 48 h; comparison arm got DMSO vehicle only
Measurement: 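Ratios to non-targeting siRNA for cell gain, counted as DAPI nuclei after minus before drug and averaged over two replicates, and for absorbance-read medium lactate per cell; both binned into fold-change classes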
Scale: cell gain with vemurafenib: higher = more cell gain than with non-targeting siRNA; lactate per cell with vemurafenib: higher = more lactate made per cell
Active means: 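Enhancement is called by pairing each knock-down's vehicle-arm and drug-arm fold-change classes for viability or glycolysis; which class combinations qualify is not given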
Calls: active = enhances vemurafenib effect; inactive = no enhancement seen
The whole screen tested about 18,000 reagents; this is an unselected part. 790 of them (4.4%) were called active. 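Calls rest on a combination of fold-change classes in drug and vehicle arms, not all shown here.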

gene knocked down	cell gain with vemurafenib	lactate per cell with vemurafenib	call
LOC284009	0.46	0.63	inactive
HUNK (hormonally up-regulated Neu-associated kinase)	0.26	0.82	inactive
TEAD2 (TEA domain transcription factor 2)	0.95	0.46	inactive
HOXC5 (homeobox C5)	0.14	1.18	inactive
CINP (cyclin dependent kinase 2 interacting protein)	0.26	0.62	inactive
CATSPERE (catsper channel auxiliary subunit epsilon)	0.89	0.96	inactive
USP15 (ubiquitin specific peptidase 15)	0.43	1.18	inactive
COA4 (cytochrome c oxidase assembly factor 4 homolog)	0.39	1.58	inactive
FGFR1OP2 (FGFR1 oncogene partner 2)	0.34	0.76	inactive
KLK15 (kallikrein related peptidase 15)	0.54	0.86	inactive
FKBP6 (FKBP prolyl isomerase family member 6 (inactive))	0.62	0.27	inactive
SLC40A1	0.81	0.42	inactive
FBXL5 (F-box and leucine rich repeat protein 5)	0.63	0.88	inactive
H2BC17 (H2B clustered histone 17)	-0.05	2.74	inactive
GARIN6 (golgi associated RAB2 interactor family member 6)	1.11	0.62	inactive
LSM10 (LSM10, U7 small nuclear RNA associated)	0.65	0.56	inactive
PPP1R15A (protein phosphatase 1 regulatory subunit 15A)	1.26	0.48	inactive
SLITRK6 (SLIT and NTRK like family member 6)	0.88	0.88	inactive
TMEM47 (transmembrane protein 47)	0.5	1.11	inactive
ACVRL1 (activin A receptor like type 1)	0.28	2.32	inactive
MDH1 (malate dehydrogenase 1)	0.76	0.61	inactive
SLC35H1	0.55	1.2	inactive
MAB21L3 (mab-21 like 3)	0.45	0.99	inactive
MRPS18B (mitochondrial ribosomal protein S18B)	1.02	0.76	inactive
GAD2 (glutamate decarboxylase 2)	0.34	0.66	active
SRGAP2 (SLIT-ROBO Rho GTPase activating protein 2)	0.83	0.99	inactive
PHF23 (PHD finger protein 23)	0.96	0.74	inactive
HSPE1 (heat shock protein family E (Hsp10) member 1)	0.72	1.12	inactive
PRXL2B (peroxiredoxin like 2B)	0.69	0.72	inactive
KLHL14 (kelch like family member 14)	0.75	0.84	inactive
ETNK1 (ethanolamine kinase 1)	1.17	1.02	inactive
LGALS3 (galectin 3)	0.43	0.98	inactive
CACNA2D2	0.55	0.9	inactive

The list goes on, starting with the last 6 of the part before.
gene knocked down	cell gain with vemurafenib	lactate per cell with vemurafenib	call
HSPE1 (heat shock protein family E (Hsp10) member 1)	0.72	1.12	inactive
PRXL2B (peroxiredoxin like 2B)	0.69	0.72	inactive
KLHL14 (kelch like family member 14)	0.75	0.84	inactive
ETNK1 (ethanolamine kinase 1)	1.17	1.02	inactive
LGALS3 (galectin 3)	0.43	0.98	inactive
CACNA2D2	0.55	0.9	inactive
MARK1 (microtubule affinity regulating kinase 1)	0.16	0.71	active
EID2 (EP300 interacting inhibitor of differentiation 2)	0.96	0.89	inactive
DHX35 (DEAH-box helicase 35)	0.62	0.93	inactive
FRRS1L (ferric chelate reductase 1 like)	0.22	2.32	inactive
WDPCP (WD repeat containing planar cell polarity effector)	0.74	1.52	inactive
VPS25 (vacuolar protein sorting 25 homolog)	0.58	1.27	inactive
CD300E (CD300e molecule)	0.74	0.81	inactive
MFSD2B (MFSD2 lysolipid transporter B, sphingolipid)	0.52	1.42	inactive
PTBP2 (polypyrimidine tract binding protein 2)	0.6	0.39	inactive
CPAMD8 (C3 and PZP like alpha-2-macroglobulin domain containing 8)	0.77	1.1	inactive
LY6G6D (lymphocyte antigen 6 family member G6D)	0.88	0.92	inactive
LOC400576 (retired record)	0.9	0.88	inactive
KHSRP (KH-type splicing regulatory protein)	0.06	0.62	inactive
SEPTIN5 (septin 5)	0.68	0.94	inactive
CCDC34 (coiled-coil domain containing 34)	-0.02	0.64	inactive
C6orf15 (chromosome 6 open reading frame 15)	0.56	0.72	inactive
PRDM11 (PR/SET domain 11)	0.68	1.28	inactive
SPI1 (Spi-1 proto-oncogene)	0.64	0.56	inactive
CARS1 (cysteinyl-tRNA synthetase 1)	0.57	0.7	inactive
LRRC66 (leucine rich repeat containing 66)	0.82	1.15	inactive
PRB4 (proline rich protein BstNI subfamily 4)	1.02	0.7	inactive
DNAJB7 (DnaJ heat shock protein family (Hsp40) member B7)	0.3	0.4	inactive
ZNF177 (zinc finger protein 177)	0.98	0.47	active
PLS1 (plastin 1)	0.84	0.72	inactive
ICA1 (islet cell autoantigen 1)	0.02	1.06	active
SPINK13 (serine peptidase inhibitor Kazal type 13)	0.7	0.52	inactive
PDE4C (phosphodiesterase 4C)	1	0.97	inactive
PPT2 (palmitoyl-protein thioesterase 2)	0.57	1	inactive
CCDC106 (coiled-coil domain containing 106)	0.97	0.96	inactive
MT1E (metallothionein 1E)	0.67	1.12	inactive
ADIG (adipogenin)	0.79	1.14	inactive
TSLIG2 (tRNA splicing ligase complex subunit 2)	0.55	0.98	inactive
GOLM2 (golgi membrane protein 2)	0.13	0.35	active
HSD11B1 (hydroxysteroid 11-beta dehydrogenase 1)	1.1	0.57	inactive
ACP4 (acid phosphatase 4)	0.56	0.79	inactive
RPF2 (ribosome production factor 2 homolog)	0.8	0.94	inactive
FRYL (FRY like transcription coactivator)	1.11	1.08	inactive
RCHY1 (ring finger and CHY zinc finger domain containing 1)	1	0.68	inactive
KLK7 (kallikrein related peptidase 7)	0.57	0.12	active
MUL1 (mitochondrial E3 ubiquitin protein ligase 1)	1.17	0.88	inactive
VSIG4 (V-set and immunoglobulin domain containing 4)	0.69	0.69	inactive
NUS1 (NUS1 dehydrodolichyl diphosphate synthase subunit)	0.77	1.33	inactive
NOXO1 (NADPH oxidase organizer 1)	0.78	1.22	inactive
CHRM1 (cholinergic receptor muscarinic 1)	0.79	0.8	inactive
DKK4 (dickkopf Wnt signaling pathway inhibitor 4)	0.71	1.16	inactive
PCLAF (PCNA clamp associated factor)	0.76	0.46	inactive
RECQL5 (RecQ like helicase 5)	0.46	1.25	inactive
H3C12 (H3 clustered histone 12)	0.32	1.11	inactive
ANKZF1 (ankyrin repeat and zinc finger peptidyl tRNA hydrolase 1)	-0.12	1.29	inactive
SLC10A6	0.57	0.75	inactive
SNAI3 (snail family transcriptional repressor 3)	-0.03	1.34	inactive
